{"source": "paper PMC7255015", "key": {"[1]": {"target": "T1, Flag-tagged CD82 (wild type) (human) (UniProt P27701)", "T1 sequence (chain, N-glycosylated at Asn129, Asn157 and Asn198)": "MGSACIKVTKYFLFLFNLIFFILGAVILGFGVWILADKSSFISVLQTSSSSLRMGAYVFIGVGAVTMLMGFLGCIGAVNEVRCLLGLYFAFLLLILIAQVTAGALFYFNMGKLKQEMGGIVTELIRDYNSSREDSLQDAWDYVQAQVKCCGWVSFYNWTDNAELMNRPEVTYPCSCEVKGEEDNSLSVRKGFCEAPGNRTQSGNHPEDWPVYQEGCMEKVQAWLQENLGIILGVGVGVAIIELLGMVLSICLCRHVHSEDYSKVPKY", "experiment": "co-IP; anti-Flag antibody and G-agarose beads overnight, lysates of stable ES2 cells in IP buffer (50 mM Tris-HCl pH 7.4, 150 mM NaCl, 0.1% NP-40, 5 mM EDTA); western blot of the precipitate"}, "[2]": {"target": "T2, Flag-tagged CD82 N198Q glycosylation deficient mutant (human) (UniProt P27701)", "T2 sequence (chain, glycosylation site Asn198 removed)": "T1 sequence (chain, N-glycosylated at Asn129, Asn157 and Asn198) with N198Q", "experiment": "co-IP; anti-Flag antibody and G-agarose beads overnight, lysates of stable ES2 cells in IP buffer (50 mM Tris-HCl pH 7.4, 150 mM NaCl, 0.1% NP-40, 5 mM EDTA); western blot of the precipitate"}}, "note": "Positions count from the first letter of the chain named. These are yes or no findings as the source states them, for the method shown. Binding seen in cells or lysates may run through a third protein. Binding can be weak; no strength is given. Where a sequence is shown, tags or fusion partners need not be part of it."}
{"substance": "integrin α5 (human (endogenous in ES2)) (receptor)", "values": [{"measurement": "binding", "setting": "[1]", "result": "binds"}, {"measurement": "binding", "setting": "[2]", "result": "binds"}]}
